According to PubChem BioAssay AID588590 (National Center for Advancing Translational Sciences (NCATS), 2011):
Several values for one entry are separate records, joined by “and”; a condition that tells them apart may be missing. Equal entries are not always repeated. Out of some 390,000 compounds screened, about 4,000 (1%) were called active. This list was built around the results that the source calls inconclusive (neither active nor inactive); the mix of calls is not that of the screen. The call rests on the fitted dose curve; in most records, active means well fitted inhibition curve with a large enough effect; inconclusive means small, poorly fitted or top-dose-only effect, or another doubt; inactive means no such curve, though single readings can be large or run the other way. Potencies of inconclusive entries are doubtful fits and often do not repeat.

Amino acid sequences for entries named in this document (tags omitted). A change or cut given only in a name is not applied to a line headed by its entry.
UniProt Q9UNA4: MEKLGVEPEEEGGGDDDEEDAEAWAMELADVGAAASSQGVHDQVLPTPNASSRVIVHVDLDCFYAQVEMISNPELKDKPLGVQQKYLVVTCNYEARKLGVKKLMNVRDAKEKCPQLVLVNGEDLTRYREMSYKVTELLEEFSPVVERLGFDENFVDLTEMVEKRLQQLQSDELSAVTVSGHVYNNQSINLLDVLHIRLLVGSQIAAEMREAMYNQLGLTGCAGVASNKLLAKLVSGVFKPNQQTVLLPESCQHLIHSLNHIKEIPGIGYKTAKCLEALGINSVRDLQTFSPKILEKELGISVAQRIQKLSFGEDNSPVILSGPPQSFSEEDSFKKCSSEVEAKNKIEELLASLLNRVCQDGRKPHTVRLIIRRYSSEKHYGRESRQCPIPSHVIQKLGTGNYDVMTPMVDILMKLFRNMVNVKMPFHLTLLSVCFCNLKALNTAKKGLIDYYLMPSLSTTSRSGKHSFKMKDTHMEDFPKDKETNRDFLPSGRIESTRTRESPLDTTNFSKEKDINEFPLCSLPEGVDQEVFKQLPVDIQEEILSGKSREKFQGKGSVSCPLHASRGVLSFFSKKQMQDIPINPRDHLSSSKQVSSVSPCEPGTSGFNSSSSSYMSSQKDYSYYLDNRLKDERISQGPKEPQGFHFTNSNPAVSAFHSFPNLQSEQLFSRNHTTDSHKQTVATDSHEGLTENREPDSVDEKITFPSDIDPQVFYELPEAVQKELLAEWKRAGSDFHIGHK

target: DNA polymerase iota (Homo sapiens) (UniProt Q9UNA4); test: qHTS for Inhibitors of Polymerase Iota; settings: Pol iota fluorescent replication assay, 10 min; series mostly up to 115 µM
In short: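 Pol iota at 10 nM preincubated 15 min with compounds at room temperature; reaction started with fluorescent substrate, 50 nM final. Fluorescence read kinetically at 0 and 10 min; buffer-only wells as negative control.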
Potency means the concentration at half of the fitted maximal effect.

| SMILES | Potency |
| --- | --- |
| CCOC(=O)c1ccc(Oc2cn[nH]c2-c2ccc(OCC(=O)NN)cc2O)cc1 | inconclusive: 63.1 µM [inhibitor, single point] |
| CCOc1ccc(/C(O)=C2/C(=O)C(=O)N(c3nc(C)c(C)s3)C2c2ccco2)cc1 (configuration not stated) | inconclusive: 15.8 µM [inhibitor, partial curve, poor fit] |
| CS(=O)(=O)N1CCc2cc(C(=O)N3CCN(c4ccc(F)cc4)CC3)ccc21 | inconclusive: 89.1 µM [inhibitor, single point] |
| COc1cc(OC)cc(N(C(=O)C2COc3ccccc3O2)C(C(=O)NC2CCCCC2)c2ccc(O)cc2)c1 (configuration not stated) | inconclusive: 89.1 µM [inhibitor, partial curve, poor fit] |
| CNC[C@H](O)c1ccc(O)c(O)c1 | inactive and inconclusive: 44.7 µM [inhibitor, partial curve] |
| Cc1cccc(N2CCN(S(=O)(=O)c3ccc4[nH]c(=O)ccc4c3)CC2)c1C | inconclusive: 31.6 µM [inhibitor, partial curve, poor fit] |
| O=C(NCc1ccco1)c1cc(Cl)nc(Cl)c1 | inconclusive: 79.4 µM [inhibitor, partial curve] |
| c1ccc(N2CCN(Cc3ccnc4ccccc34)CC2)cc1 | inconclusive: 28.2 µM [inhibitor, single point] |
| COc1ccc(CCNC(=O)CCc2c(C)nc3c(c(C)nn3-c3ccccc3)c2C)c(OC)c1 | inactive |
| c1ccc(COn2nnc3ccccc32)c(COn2nnc3ccccc32)c1 | inconclusive: 15.8 µM [inhibitor, partial curve, poor fit] |
| COc1ccc(-c2csc(Nc3ncccc3C)n2)cc1 | inconclusive: 20 µM [inhibitor, single point] |
| CC1CCCC(NC(=O)CN(C)CC(=O)Nc2cccc(F)c2)C1C (configuration not stated) | inactive |
| O=C(Nc1ccccc1O)c1ccc(C(=O)c2ccccc2)o1 | inconclusive: 89.1 µM [inhibitor, single point] |
| c1ccc2c(c1)OCC(c1nn3c(Cn4nnc5ccccc54)nnc3s1)O2 (configuration not stated) | active: 50.1 µM |
| O=C(/C=C/c1ccc(Cl)cc1)N1CCOCC1 | inconclusive: 70.8 µM [inhibitor, partial curve, poor fit] |
| Cc1ccc(-n2c(O)c(/C=N/Nc3ccc(S(=O)(=O)N4CCOCC4)cc3[N+](=O)[O-])c3ccccc3c2=O)c(C)c1 | inconclusive: 25.1 µM [inhibitor, single point] |
| Cn1c(N)c(C(=O)COC(=O)COc2ccc(C#N)cc2)c(=O)n(C)c1=O | inconclusive: 39.8 µM [inhibitor, partial curve, poor fit] |
| O=C(NNS(=O)(=O)c1ccc([N+](=O)[O-])cc1)C(=O)Nc1cccc(C(=O)O)c1 | inconclusive: 56.2 µM [inhibitor, partial curve, poor fit] |
| Cc1ccc(NC(=O)COC(=O)c2ccc(C)c(S(=O)(=O)N3CCOCC3)c2)cc1 | inactive |

For reference, part of the list above.

| SMILES | Potency |
| --- | --- |
| CNC[C@H](O)c1ccc(O)c(O)c1 | inactive and inconclusive: 44.7 µM [inhibitor, partial curve] |
| Cc1cccc(N2CCN(S(=O)(=O)c3ccc4[nH]c(=O)ccc4c3)CC2)c1C | inconclusive: 31.6 µM [inhibitor, partial curve, poor fit] |

The listing continues.

| SMILES | Potency |
| --- | --- |
| COc1ccc(-c2nnc(NC(=O)C3CCCO3)s2)cc1 (configuration not stated) | inconclusive: 20 µM [inhibitor, full curve, poor fit] |
| C[N+]1(C2CCC3CCCC2C3O)CCCCC1 (configuration not stated) | inconclusive: 70.8 µM [inhibitor, partial curve] |
| CCCN1CNc2c(c(=O)[nH]c(=S)n2CCc2cc(C)cc(C)c2)C1 | inactive |
| CCn1nc(C(=O)OCC(=O)Nc2ncc(Cl)c(C)c2Cl)c2ccccc2c1=O | inconclusive: 25.1 µM [inhibitor, full curve, poor fit] |
| CC(C)CNC(=O)c1c2c(nc3ccccc13)-c1ccccc1CC2 | inconclusive: 35.5 µM [inhibitor, single point] |
| C#CCOCCOCCOCCNc1nc(N2CCOCC2)nc(N2CCN(C(=O)[C@H](Cc3cc4ccccc4[nH]3)n3cc([C@@H](N)C(C)CC)nn3)CC2)n1 (some centres not stated) | inconclusive: 17.8 µM [inhibitor, partial curve, poor fit] |
| COc1ccc(C2=CSC3=NCCN23)cc1 | inconclusive: 2.82 µM [inhibitor, partial curve, poor fit] |
| S=c1[nH]nc(Cc2c[nH]c3ccccc23)o1 | inactive |
| Cc1cc(NC(=O)CSc2nc3c(C)cccc3cc2C)no1 | inactive |
| COc1ccc(C2/C(=C(\O)c3ccc4c(c3)OCCO4)C(=O)C(=O)N2CCCN(C)C)c(OC)c1 (configuration not stated) | inconclusive: 25.1 µM [inhibitor, partial curve, poor fit] |
| CCCCNCC(=O)Nc1ccc(NC(=O)CNCCCC)cc1 | inconclusive: 112 µM [inhibitor, single point] |
| COc1ccc(-c2cc(=O)n(-c3ccc([N+](=O)[O-])cc3)[nH]2)cc1 | inconclusive: 3.98 µM [inhibitor, full curve, poor fit] |
| COc1cc2c(cc1OC)CN(C(=S)Nc1ccccc1Cl)CC2 | inconclusive: 6.31 µM [inhibitor, partial curve, poor fit] |
| COc1ccc(-c2ccc3oc(-c4ccc(OC)cc4)c(C#CC4(O)CCCCC4)c3c2)cc1 | inconclusive: 14.1 µM [inhibitor, partial curve, poor fit] |
| O=C(CSc1n[nH]c(-c2ccccc2Cl)n1)N1CCN(c2ccccc2F)CC1 | inconclusive: 5.62 µM [inhibitor, partial curve, poor fit] |
| Cc1ccc(-c2nc3sc(C#N)c(N)n3c(=O)c2C#N)cc1 | inconclusive: 20 µM [inhibitor, single point] |
| Cc1ccc(CN2CCNC(=O)C2CC(=O)NCCCn2ncc3ccccc32)o1 (configuration not stated) | inconclusive: 20 µM [inhibitor, full curve, poor fit] |
| O=C(O)c1cccc(Nc2nc(-c3cccnc3)nc3ccccc23)c1 | inconclusive: 126 µM [inhibitor, single point] |
| O=C(N/N=C/c1cccnc1)c1ccccc1Cl | inconclusive: 70.8 µM [inhibitor, single point] |

| SMILES | Potency |
| --- | --- |
| O=C(NN=Cc1ccccc1O)NN=Cc1ccccc1O | inconclusive: 50.1 µM [inhibitor, partial curve, poor fit] |
| COC1=C(Nc2ccc(C)cc2)C(=O)c2ccccc2C1=O | inconclusive: 25.1 µM [inhibitor, partial curve, poor fit] |
| COc1ccc(CSc2nc3ccccc3[nH]2)cc1 | inconclusive: 3.55 µM [inhibitor, full curve, poor fit] |
| COc1ccc(/C=C/C(=O)NC(=S)Nc2ccc(S(=O)(=O)Nc3cc(OC)ncn3)cc2)cc1 | inconclusive: 10 µM [inhibitor, full curve, poor fit] |
| Cc1cc(C)c2c(-n3cccc3)c(C(=O)NCCc3ccccc3)sc2n1 | inactive |
| C#CCOCCOCCOCCNc1nc(N2CCN(C(=O)CCCCCCCCCCNC(=O)[C@H](CO)n3cc(CCCSC)nn3)CC2)nc(N2CCN(C(=O)CCCCCCCCCCNC(=O)[C@H](CCCCN)n3cc(CCO)nn3)CC2)n1 | inconclusive: 12.6 µM [inhibitor, partial curve, poor fit] |
| O=C(O)c1ccc(CNCc2ccc(Cl)cc2Cl)cc1 | inconclusive: 56.2 µM [inhibitor, partial curve, poor fit] |
| Nc1ccc(-c2nc3cc([N+](=O)[O-])ccc3o2)cc1 | inconclusive: 89.1 µM [inhibitor, single point] |
| O=C(Nc1ccc(O)cc1)c1cc2n(n1)C(C(F)(F)F)CC(c1ccco1)N2 (configuration not stated) | inconclusive: 5.01 µM [inhibitor, full curve, poor fit] |
| O=C(Nc1ccc(S(=O)(=O)NC2=NCCCCC2)cc1)C1COc2ccccc2O1 (configuration not stated) | inactive |
| Cc1nn(Cc2ccccc2)c(C)c1C(=O)OCC(=O)c1cc(C)n(C2CC2)c1C | inconclusive: 39.8 µM [inhibitor, partial curve, poor fit] |
| CCN1C(=O)[C@H]2[C@@H](c3ccc(-c4ccccc4)cc3)N3CCC[C@@]3(C(=O)OC)[C@H]2C1=O | inconclusive: 56.2 µM [inhibitor, partial curve, poor fit] |
| COc1cccc(Cn2cc(S(=O)(=O)c3ccc(C)cc3)c(=O)c3cc4c(cc32)OCO4)c1 | inconclusive: 39.8 µM [inhibitor, single point] |
| Cc1nc2ccccc2n1CCc1nc2c3ccccc3nc(SCC(=O)Nc3ccc(C(C)C)cc3)n2n1 | inconclusive: 89.1 µM [inhibitor, partial curve, poor fit] |
| CC1(C)CC[C@]2(C(=O)O[C@@H]3OC(CO)[C@@H](O)[C@H](O)[C@H]3O)CC[C@]3(C)C(=CCC4[C@@]5(C)CC[C@H](O[C@@H]6OC(C(=O)O)[C@@H](O)[C@H](O)[C@H]6O)C(C)(C)C5CC[C@]43C)[C@@H]2C1 (some centres not stated) | inactive |
| CC1=C(C(=O)OCc2ccccc2)C(c2ccc(Cl)cc2)NC(=O)N1CCCCCC(=O)O (configuration not stated) | inconclusive: 28.2 µM [inhibitor, partial curve, poor fit] |
| O=C(CCS(=O)(=O)c1ccc(Br)cc1)Nc1ccc(Br)cc1F | inconclusive: 89.1 µM [inhibitor, single point] |
| Cc1cc(O)c(S(=O)(=O)c2ccccc2)c(C)c1NS(=O)(=O)c1ccccc1 | inconclusive: 15.8 µM [inhibitor, partial curve, poor fit] |
| CCNC(=S)N1CCc2cc(OC)c(OC)cc2C1COc1ccc(OC)cc1 (configuration not stated) | inconclusive: 79.4 µM [inhibitor, partial curve] |
